The text below walks through data of article PMC6802648.

Protein sequences, listed by entry. Tags and fused reporters are not part of them.
UniProt Q00987: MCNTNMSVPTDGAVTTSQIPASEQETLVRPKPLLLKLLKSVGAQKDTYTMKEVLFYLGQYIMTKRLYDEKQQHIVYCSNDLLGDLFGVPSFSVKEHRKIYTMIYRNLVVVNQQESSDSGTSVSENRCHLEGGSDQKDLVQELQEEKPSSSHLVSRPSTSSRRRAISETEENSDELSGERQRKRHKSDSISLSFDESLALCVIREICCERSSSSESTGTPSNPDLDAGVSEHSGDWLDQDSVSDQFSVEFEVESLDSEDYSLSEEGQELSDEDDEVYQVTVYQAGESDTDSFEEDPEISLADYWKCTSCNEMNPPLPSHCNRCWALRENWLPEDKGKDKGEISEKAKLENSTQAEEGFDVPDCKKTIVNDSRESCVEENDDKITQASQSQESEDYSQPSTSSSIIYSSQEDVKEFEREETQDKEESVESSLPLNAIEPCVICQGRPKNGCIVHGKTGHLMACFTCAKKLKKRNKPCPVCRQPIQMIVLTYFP

No constants are given. Whether binding was seen depends on the method and setting. In cells and extracts the contact can be indirect.

The target of the assay is MDM2 (human (endogenous in ARPE-19)) (UniProt Q00987). Briefly: co-IP; ARPE-19 (RPE) cell lysates in RIPA buffer, precleared; anti-MDM2 antibody, protein A agarose, 4 °C; blotted for p53 and TXNIP; shCtrl and TXNIP knock-down (shTXNIP) cells.

B1: Thioredoxin-interacting protein (TXNIP) (protein, UniProt Q9H3M7-1 1-391)
chain: MVMFKKIKSFEVVFNDPEKVYGSGEKVAGRVIVEVCEVTRVKAVRILACGVAKVLWMQGSQQCKQTSEYLRYEDTLLLEDQPTGENEMVIMRPGNKYEYKFGFELPQGPLGTSFKGKYGCVDYWVKAFLDRPSQPTQETKKNFEVVDLVDVNTPDLMAPVSAKKEKKVSCMFIPDGRVSVSARIDRKGFCEGDEISIHADFENTCSRIVVPKAAIVARHTYLANGQTKVLTQKLSSVRGNHIISGTCASWRGKSLRVQKIRPSILGCNILRVEYSLLIYVSVPGSKKVILDLPLVIGSRSGLSSRTSSMASRTSSEMSWVDLNIPDTPEAPPCYMDVIPEDHRLESPTTPLLDDMDGSQDSPIFMYAPEFKFMPPPTYTEVDPCILNNNVQ
For B1, the binding result was “no binding”.
